This note sets out measurements from paper PMC10535701.

Chains of the proteins cited; added tags and fusions are not shown.
UniProt P10242: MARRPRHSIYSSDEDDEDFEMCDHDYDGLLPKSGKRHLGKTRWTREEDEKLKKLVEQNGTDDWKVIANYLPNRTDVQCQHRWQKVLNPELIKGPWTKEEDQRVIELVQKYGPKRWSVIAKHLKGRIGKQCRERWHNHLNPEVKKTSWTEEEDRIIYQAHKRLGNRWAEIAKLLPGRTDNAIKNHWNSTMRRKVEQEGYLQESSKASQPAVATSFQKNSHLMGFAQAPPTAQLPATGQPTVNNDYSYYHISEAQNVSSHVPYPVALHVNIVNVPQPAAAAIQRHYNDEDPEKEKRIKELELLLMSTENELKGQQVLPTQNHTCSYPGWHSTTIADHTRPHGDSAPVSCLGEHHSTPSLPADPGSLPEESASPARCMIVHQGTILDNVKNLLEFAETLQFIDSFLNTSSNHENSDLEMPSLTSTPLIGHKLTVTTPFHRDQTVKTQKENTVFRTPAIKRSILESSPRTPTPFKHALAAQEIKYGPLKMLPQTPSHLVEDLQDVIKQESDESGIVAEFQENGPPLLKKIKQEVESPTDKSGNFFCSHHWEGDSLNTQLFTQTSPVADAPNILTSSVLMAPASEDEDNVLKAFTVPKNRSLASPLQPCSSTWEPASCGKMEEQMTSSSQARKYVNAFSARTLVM

Assay [1] addresses MYB, exogenous in HEK293T cells (UniProt P10242). The assay can be described thus: co-IP; exogenous BATF2 and MYB in HEK293T cells; repeated three times; details in the Supplementary materials and methods.
For assay [2], the target named is MYB, endogenous in Jurkat T cells (human (endogenous in Jurkat)) (UniProt P10242). The assay can be described thus: co-IP; endogenous BATF2 and MYB in Jurkat T cells; repeated three times; details in the Supplementary materials and methods.

These are yes or no findings as the source states them, for the method shown. Binding seen in cells or lysates may run through a third protein. Some entries that bind do so weakly or less than the wild type.

B1: BATF2 (basic leucine zipper ATF-like transcription factor 2), exogenous in HEK293T cells (protein, UniProt Q8N1L9 1-274)
chain: MHLCGGNGLLTQTDPKEQQRQLKKQKNRAAAQRSRQKHTDKADALHQQHESLEKDNLALRKEIQSLQAELAWWSRTLHVHERLCPMDCASCSAPGLLGCWDQAEGLLGPGPQGQHGCREQLELFQTPGSCYPAQPLSPGPQPHDSPSLLQCPLPSLSLGPAVVAEPPVQLSPSPLLFASHTGSSLQGSSSKLSALQPSLTAQTAPPQPLELEHPTRGKLGSSPDNPSSALGLARLQSREHKPALSAATWQGLVVDPSPHPLLAFPLLSSAQVHF
For the molecule B1, the binding entry in assay [1] is recorded as “binds”.

B2: BATF2 (basic leucine zipper ATF-like transcription factor 2), endogenous in Jurkat T cells (protein, UniProt Q8N1L9 1-274)
chain: MHLCGGNGLLTQTDPKEQQRQLKKQKNRAAAQRSRQKHTDKADALHQQHESLEKDNLALRKEIQSLQAELAWWSRTLHVHERLCPMDCASCSAPGLLGCWDQAEGLLGPGPQGQHGCREQLELFQTPGSCYPAQPLSPGPQPHDSPSLLQCPLPSLSLGPAVVAEPPVQLSPSPLLFASHTGSSLQGSSSKLSALQPSLTAQTAPPQPLELEHPTRGKLGSSPDNPSSALGLARLQSREHKPALSAATWQGLVVDPSPHPLLAFPLLSSAQVHF
Take B2: the binding result in assay [2] is on record as “binds”.
